# Assay results: PubChem BioAssay AID2685 (National Center for Advancing Translational Sciences (NCATS), 2010)
# This is one part of the list. The main result of the screen is listed elsewhere. These columns were measured beside it and carry no call. The list favours compounds with an active or inconclusive main result. The note in brackets gives the kind of curve behind each potency; many fits are weak.
# Test: qHTS Assay for Lipid Storage Modulators in Drosophila S3 Cells;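 for cell number change: cells counted by Cell Tracker Red CMTPX staining in the red channel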
# Settings: BODIPY lipid droplet fluorescence, 18-24 h; for cell number change: measured here: cell count max response, cells fed with added oleic acid
# Method in brief: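 Laser-scanning cytometry quantifies lipid droplet accumulation (500–530 nm total intensity; droplet/cell object ratio) in oleic acid-fed (400 uM added) Drosophila S3 cells treated with a concentration series. 20 uM Triacsin C defined 100% inhibition.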
# [1] = measured here: lipid fluorescence (Fed channel) AC50, cells fed with added oleic acid
# [2] = measured here: cell number channel AC50, cells fed with added oleic acid
SMILES,AC50 [1],cell number change,AC50 [2]
O=C1COc2ccc(C(=O)COc3ccc(Cl)cc3Br)cc2N1,"1.64 µM [rising, partial curve, poor fit]",,
COc1ccc2c(CC(=O)N3CCc4cc(OC)c(OC)cc4C3)coc2c1,,-18.1%,
COc1cc(NC(=O)Cc2ccccc2)ccc1NC(=O)c1ccccc1,"20.6 µM [falling, partial curve]",,
COc1ccc2oc(C(=O)OCC(=O)NC3CC3)c(C)c2c1,"2.31 µM [rising, single point]",5.73%,
O=c1[nH][nH]c(-c2ccccc2)c1C=Nc1ccccc1,,-13.8%,
CCC(CC)=C(C#N)C(=O)NC1CCCCC1,"0.82 µM [rising, full curve, poor fit]",9.13%,
COC(=O)CN1C(=S)N(c2ccc(OC)cc2)C(=O)/C1=C/c1ccc(N2CCOCC2)cc1,"35.5 µM [falling, single point]",-4.99%,
Cc1ncc(CO)c(/C=N/NC(=S)Nc2cccc(Cl)c2)c1O,,5.23%,
COc1ccc(C(C)=O)cc1CN1C(=O)C(C)N(c2ccc(C)cc2)C1=O (stereo not given),"0.291 µM [rising, full curve, poor fit]",29.4%,"2.59 µM [rising, full curve, poor fit]"
N#Cc1cccc(NC(=O)C2SC(=Nc3ccccc3)C(C(=O)N3CCOCC3)=C2N)c1 (stereo not given),"25.9 µM [falling, single point]",-34.9%,"0.58 µM [rising, single point]"
Cc1ccc(CN2C3CCCC2CC(NC(=O)c2ccc(F)cc2)C3)cc1 (stereo not given),,-3.15%,
CCOC(=O)c1[nH]c(C)c(C(=O)OCC(=O)N2c3ccccc3CC2C)c1C (stereo not given),,-33.5%,"0.184 µM [falling, full curve, poor fit]"
Cc1ccc(S(=O)(=O)N2CCCC2C(=O)Oc2ccccc2)cc1 (stereo not given),"29.1 µM [falling, single point]",-23.8%,"0.92 µM [falling, full curve, poor fit]"
Cc1ccc(C)c(-c2csc(NC(=O)c3c(C)noc3C)n2)c1,"2.91 µM [falling, partial curve, poor fit]",4.51%,
C=CCN1C(c2ccc(OCC)cc2)=CS/C1=C(\C#N)c1nnc2n1CCCCC2,"1.16 µM [rising, full curve]",,"0.651 µM [rising, full curve]"
Cc1cc(NC(=O)Cn2nnc3sc4c(c3c2=O)CCC(C(C)(C)C)C4)no1 (stereo not given),,-27.2%,
Cc1nn(CC(=O)Nc2ccc3c(c2)nc(CCN2CCCCC2)n3C)c(=O)c2ccccc12,"29.1 µM [falling, single point]",-32.2%,

# Arranged by length of the SMILES (largest number first): some entries from above.
SMILES,AC50 [1],cell number change,AC50 [2]
COC(=O)CN1C(=S)N(c2ccc(OC)cc2)C(=O)/C1=C/c1ccc(N2CCOCC2)cc1,"35.5 µM [falling, single point]",-4.99%,
CCOC(=O)c1[nH]c(C)c(C(=O)OCC(=O)N2c3ccccc3CC2C)c1C (stereo not given),,-33.5%,"0.184 µM [falling, full curve, poor fit]"
Cc1ncc(CO)c(/C=N/NC(=S)Nc2cccc(Cl)c2)c1O,,5.23%,
O=c1[nH][nH]c(-c2ccccc2)c1C=Nc1ccccc1,,-13.8%,
CCC(CC)=C(C#N)C(=O)NC1CCCCC1,"0.82 µM [rising, full curve, poor fit]",9.13%,
